# Positions count from the first letter of the chain named. Results are given in words; binding and its absence hold for the method and conditions named. In cells and extracts the contact can be indirect. Some results given as binding are weak or reduced against the parent protein; the word gives no strength.
# Chains of the proteins cited; added tags and fusions are not shown.
# UniProt Q13557: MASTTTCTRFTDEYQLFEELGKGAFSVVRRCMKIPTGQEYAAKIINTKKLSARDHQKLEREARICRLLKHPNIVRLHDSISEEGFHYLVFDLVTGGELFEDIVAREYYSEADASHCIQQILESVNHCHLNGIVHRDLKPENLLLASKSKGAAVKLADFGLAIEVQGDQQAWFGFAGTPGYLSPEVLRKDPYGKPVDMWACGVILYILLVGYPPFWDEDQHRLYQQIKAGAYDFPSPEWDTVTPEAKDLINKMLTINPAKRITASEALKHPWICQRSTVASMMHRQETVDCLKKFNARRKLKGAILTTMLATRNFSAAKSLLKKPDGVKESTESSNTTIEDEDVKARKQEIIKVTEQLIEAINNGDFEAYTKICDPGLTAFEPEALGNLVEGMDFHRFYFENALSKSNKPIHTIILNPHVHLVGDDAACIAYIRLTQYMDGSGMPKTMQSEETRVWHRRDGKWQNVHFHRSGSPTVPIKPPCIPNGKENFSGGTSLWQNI
# How the values were obtained:
# PEAK2 L966A = target: T1, PEAK2 L966A (UniProt Q86YV5); test: co-IP; association of PEAK2 and its mutants with CAMK2D (Supplementary Fig. 4); cells and details not shown; also with PEAK1 knockdown
# T1 sequence: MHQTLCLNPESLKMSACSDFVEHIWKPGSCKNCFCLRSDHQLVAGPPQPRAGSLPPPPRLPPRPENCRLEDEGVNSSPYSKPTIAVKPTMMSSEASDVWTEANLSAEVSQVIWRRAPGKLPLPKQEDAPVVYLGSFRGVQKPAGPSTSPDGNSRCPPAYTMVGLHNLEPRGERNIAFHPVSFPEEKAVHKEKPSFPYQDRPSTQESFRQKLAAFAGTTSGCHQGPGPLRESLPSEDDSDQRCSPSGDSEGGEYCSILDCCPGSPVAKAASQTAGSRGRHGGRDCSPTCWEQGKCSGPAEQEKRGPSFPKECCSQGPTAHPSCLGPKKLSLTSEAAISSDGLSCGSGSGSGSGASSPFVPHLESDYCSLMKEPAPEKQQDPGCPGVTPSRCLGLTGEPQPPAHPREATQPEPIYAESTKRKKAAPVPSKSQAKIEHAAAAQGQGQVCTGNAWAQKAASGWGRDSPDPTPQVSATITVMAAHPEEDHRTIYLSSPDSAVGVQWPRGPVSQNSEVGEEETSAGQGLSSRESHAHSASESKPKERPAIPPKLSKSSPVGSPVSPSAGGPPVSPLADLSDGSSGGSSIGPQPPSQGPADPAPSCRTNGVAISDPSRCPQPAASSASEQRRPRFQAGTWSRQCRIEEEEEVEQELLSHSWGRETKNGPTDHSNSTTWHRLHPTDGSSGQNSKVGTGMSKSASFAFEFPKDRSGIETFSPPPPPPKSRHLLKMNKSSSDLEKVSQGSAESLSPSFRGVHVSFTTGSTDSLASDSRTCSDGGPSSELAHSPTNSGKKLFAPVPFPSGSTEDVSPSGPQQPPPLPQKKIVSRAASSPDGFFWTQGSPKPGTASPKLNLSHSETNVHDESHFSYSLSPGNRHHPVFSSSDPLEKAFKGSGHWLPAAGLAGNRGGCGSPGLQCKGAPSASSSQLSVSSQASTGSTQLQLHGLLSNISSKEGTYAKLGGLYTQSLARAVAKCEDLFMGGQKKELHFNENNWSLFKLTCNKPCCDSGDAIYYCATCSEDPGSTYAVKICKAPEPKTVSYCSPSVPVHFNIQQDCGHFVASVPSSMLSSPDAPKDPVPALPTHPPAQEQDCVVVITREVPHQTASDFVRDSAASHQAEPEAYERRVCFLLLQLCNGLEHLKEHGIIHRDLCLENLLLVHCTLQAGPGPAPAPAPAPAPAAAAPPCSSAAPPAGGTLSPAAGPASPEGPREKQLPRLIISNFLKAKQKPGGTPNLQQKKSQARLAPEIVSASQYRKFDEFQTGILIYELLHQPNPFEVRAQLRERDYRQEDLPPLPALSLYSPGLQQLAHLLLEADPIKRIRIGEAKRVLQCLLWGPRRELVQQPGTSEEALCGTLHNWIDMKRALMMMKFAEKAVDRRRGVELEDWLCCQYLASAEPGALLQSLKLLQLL
# PEAK2 L955A = target: T2, PEAK2 L955A (UniProt Q86YV5); test: as above
# T2 sequence: T1 sequence with L955A, A966L
substance,measurement,setting,value
CAMK2D (partner of PEAK2 in Supplementary Fig. 4) (from UniProt Q13557 1-499) (enzyme),binding,PEAK2 L966A,binds
same,binding,PEAK2 L955A,binds
